This is one part of the list.
compound: COc1ccc(Cn2ccc3ccc(C(=O)NO)cc32)cc1; test: dose-dependent thermal stabilisation call (2D-TPP, DLPTP, 10% FDR) (binary (1 = stabilised)); higher = stabilised by the compound; conditions: system: HL-60 intact cells; concentration range 0.04-10 µM

Sequences of proteins named here, by UniProt entry; tags and fusion partners are left off. A change or cut given only in a name is not applied to a line headed by its entry.
UniProt Q9NVM4: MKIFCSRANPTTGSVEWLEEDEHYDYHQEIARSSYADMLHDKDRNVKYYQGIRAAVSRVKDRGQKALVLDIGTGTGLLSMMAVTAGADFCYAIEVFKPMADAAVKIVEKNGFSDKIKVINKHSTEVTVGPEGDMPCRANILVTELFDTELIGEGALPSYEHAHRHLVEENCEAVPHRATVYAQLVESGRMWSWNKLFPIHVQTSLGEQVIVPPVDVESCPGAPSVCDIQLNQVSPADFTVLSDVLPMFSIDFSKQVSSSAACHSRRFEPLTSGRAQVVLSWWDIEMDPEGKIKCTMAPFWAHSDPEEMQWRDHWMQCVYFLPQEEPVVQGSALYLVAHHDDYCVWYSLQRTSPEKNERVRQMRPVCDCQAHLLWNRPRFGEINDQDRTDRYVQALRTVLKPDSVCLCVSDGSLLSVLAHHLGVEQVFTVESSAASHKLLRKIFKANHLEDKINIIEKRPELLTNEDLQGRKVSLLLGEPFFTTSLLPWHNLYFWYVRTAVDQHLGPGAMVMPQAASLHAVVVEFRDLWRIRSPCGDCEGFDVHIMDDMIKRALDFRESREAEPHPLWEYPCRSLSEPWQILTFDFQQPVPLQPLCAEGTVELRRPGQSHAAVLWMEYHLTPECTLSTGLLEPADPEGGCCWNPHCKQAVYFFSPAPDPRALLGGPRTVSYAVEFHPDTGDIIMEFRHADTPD
UniProt Q9BTD8: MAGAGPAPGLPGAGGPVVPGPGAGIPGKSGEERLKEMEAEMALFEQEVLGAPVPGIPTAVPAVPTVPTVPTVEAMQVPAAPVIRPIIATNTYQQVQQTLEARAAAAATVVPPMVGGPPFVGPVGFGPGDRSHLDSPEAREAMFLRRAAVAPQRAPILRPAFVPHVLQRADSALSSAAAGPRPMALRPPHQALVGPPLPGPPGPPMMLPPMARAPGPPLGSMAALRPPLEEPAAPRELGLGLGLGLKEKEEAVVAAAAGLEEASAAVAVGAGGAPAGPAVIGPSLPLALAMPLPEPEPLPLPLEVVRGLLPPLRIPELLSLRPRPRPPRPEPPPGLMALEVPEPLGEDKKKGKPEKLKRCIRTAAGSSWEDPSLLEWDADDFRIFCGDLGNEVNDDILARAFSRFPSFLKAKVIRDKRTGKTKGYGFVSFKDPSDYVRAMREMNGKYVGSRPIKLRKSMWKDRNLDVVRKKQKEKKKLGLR
UniProt Q9Y617: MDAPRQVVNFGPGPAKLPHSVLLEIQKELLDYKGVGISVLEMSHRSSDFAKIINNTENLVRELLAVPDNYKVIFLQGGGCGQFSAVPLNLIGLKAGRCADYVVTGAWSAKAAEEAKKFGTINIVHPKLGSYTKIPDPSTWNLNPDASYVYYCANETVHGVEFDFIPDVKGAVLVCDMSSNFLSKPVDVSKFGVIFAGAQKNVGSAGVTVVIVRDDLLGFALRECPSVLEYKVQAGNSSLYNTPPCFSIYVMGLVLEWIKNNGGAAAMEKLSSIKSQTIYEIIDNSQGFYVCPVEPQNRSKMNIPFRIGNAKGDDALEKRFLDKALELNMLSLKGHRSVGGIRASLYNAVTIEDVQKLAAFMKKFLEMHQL
UniProt Q9H3S7: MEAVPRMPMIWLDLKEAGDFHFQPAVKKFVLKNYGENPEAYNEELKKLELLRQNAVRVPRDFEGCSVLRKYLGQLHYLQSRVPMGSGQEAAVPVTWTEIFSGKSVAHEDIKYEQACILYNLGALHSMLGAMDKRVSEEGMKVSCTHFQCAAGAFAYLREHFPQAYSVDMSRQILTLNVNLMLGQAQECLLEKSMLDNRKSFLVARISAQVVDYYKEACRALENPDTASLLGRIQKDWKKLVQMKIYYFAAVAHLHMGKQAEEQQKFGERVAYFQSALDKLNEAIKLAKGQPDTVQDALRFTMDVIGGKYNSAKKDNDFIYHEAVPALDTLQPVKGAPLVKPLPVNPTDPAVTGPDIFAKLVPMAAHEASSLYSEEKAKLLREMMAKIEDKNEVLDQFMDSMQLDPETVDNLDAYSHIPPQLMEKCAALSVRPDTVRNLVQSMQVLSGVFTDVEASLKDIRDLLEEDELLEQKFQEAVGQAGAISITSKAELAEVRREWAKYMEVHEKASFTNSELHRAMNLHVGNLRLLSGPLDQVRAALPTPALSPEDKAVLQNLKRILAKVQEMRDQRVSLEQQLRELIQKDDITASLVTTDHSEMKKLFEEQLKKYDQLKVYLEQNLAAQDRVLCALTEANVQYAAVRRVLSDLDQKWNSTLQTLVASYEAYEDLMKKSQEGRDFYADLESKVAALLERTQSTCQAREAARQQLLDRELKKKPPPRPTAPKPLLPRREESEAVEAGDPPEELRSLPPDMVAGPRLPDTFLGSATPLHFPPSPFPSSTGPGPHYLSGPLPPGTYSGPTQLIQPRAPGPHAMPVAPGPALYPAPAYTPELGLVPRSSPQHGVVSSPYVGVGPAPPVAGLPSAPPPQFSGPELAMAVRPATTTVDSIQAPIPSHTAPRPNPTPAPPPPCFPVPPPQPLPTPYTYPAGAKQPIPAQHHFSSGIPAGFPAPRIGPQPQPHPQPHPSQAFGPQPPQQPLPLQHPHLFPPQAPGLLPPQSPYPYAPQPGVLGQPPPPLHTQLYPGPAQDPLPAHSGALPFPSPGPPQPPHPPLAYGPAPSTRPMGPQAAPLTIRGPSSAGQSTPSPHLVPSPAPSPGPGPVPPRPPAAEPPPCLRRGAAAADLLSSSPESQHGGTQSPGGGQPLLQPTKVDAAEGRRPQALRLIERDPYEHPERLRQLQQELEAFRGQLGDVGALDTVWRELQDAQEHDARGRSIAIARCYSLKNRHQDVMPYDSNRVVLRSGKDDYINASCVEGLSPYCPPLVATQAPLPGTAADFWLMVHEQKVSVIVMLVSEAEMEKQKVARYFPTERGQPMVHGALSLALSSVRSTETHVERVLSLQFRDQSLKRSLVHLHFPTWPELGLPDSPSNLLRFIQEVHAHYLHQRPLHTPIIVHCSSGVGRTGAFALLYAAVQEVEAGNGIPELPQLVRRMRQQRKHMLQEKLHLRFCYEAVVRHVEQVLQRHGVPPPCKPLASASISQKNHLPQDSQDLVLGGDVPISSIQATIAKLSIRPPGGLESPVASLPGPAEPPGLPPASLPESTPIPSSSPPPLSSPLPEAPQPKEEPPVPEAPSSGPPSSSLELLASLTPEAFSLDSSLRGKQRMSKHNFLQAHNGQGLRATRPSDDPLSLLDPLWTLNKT
UniProt Q14914: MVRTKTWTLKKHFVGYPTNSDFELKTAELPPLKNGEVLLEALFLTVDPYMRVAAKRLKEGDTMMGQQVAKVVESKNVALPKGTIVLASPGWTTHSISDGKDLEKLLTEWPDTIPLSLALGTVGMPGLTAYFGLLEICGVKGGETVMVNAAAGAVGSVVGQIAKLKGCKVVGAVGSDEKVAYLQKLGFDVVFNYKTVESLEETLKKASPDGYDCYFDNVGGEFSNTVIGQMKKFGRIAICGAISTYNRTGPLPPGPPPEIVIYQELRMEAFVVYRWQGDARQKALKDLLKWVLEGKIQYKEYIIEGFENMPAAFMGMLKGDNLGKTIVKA
UniProt Q9BT73: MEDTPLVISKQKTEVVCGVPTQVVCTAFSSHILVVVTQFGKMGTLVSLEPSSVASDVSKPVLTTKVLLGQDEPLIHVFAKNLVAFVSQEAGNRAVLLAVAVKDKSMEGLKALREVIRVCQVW
UniProt Q8TEU7: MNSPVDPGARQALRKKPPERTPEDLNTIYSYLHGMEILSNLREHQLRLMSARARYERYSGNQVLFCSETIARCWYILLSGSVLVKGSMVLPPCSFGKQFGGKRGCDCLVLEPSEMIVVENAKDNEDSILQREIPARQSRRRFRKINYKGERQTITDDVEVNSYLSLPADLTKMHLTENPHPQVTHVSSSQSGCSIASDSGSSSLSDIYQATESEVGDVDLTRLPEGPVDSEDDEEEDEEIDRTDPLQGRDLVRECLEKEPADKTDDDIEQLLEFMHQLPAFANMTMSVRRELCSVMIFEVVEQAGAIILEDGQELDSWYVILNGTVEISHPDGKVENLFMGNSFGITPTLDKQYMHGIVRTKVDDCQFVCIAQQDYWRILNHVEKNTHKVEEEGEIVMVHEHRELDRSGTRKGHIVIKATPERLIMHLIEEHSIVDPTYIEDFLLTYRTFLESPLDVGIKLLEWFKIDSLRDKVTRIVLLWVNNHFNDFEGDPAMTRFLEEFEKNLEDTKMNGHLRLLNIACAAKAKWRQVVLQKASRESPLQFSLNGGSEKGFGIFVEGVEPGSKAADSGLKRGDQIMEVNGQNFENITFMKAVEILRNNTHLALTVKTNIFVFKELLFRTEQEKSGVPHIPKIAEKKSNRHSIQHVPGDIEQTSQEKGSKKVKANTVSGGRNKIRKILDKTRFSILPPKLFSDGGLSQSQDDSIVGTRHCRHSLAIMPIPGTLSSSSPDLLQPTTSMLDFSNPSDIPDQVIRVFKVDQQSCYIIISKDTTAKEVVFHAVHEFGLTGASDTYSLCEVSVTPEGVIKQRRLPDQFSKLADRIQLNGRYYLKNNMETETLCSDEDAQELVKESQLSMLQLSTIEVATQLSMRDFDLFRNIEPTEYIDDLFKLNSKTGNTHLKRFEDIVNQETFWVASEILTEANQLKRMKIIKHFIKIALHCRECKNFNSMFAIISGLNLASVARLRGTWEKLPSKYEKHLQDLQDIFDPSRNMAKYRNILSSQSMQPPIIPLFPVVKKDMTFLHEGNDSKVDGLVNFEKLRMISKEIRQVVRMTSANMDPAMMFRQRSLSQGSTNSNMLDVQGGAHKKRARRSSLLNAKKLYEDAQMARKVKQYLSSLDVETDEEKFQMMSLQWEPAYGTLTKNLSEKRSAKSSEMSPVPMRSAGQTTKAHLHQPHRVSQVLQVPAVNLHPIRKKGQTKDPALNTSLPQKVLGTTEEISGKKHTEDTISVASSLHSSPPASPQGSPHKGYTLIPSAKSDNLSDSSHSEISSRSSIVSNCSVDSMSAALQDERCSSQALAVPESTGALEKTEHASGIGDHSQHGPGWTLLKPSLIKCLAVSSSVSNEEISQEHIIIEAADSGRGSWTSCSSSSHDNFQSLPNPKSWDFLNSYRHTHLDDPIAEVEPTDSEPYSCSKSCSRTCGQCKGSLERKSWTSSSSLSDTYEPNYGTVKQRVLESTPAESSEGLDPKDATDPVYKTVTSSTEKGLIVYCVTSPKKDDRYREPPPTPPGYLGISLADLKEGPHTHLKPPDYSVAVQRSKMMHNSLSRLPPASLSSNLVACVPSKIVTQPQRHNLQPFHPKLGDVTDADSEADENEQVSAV
UniProt Q92878: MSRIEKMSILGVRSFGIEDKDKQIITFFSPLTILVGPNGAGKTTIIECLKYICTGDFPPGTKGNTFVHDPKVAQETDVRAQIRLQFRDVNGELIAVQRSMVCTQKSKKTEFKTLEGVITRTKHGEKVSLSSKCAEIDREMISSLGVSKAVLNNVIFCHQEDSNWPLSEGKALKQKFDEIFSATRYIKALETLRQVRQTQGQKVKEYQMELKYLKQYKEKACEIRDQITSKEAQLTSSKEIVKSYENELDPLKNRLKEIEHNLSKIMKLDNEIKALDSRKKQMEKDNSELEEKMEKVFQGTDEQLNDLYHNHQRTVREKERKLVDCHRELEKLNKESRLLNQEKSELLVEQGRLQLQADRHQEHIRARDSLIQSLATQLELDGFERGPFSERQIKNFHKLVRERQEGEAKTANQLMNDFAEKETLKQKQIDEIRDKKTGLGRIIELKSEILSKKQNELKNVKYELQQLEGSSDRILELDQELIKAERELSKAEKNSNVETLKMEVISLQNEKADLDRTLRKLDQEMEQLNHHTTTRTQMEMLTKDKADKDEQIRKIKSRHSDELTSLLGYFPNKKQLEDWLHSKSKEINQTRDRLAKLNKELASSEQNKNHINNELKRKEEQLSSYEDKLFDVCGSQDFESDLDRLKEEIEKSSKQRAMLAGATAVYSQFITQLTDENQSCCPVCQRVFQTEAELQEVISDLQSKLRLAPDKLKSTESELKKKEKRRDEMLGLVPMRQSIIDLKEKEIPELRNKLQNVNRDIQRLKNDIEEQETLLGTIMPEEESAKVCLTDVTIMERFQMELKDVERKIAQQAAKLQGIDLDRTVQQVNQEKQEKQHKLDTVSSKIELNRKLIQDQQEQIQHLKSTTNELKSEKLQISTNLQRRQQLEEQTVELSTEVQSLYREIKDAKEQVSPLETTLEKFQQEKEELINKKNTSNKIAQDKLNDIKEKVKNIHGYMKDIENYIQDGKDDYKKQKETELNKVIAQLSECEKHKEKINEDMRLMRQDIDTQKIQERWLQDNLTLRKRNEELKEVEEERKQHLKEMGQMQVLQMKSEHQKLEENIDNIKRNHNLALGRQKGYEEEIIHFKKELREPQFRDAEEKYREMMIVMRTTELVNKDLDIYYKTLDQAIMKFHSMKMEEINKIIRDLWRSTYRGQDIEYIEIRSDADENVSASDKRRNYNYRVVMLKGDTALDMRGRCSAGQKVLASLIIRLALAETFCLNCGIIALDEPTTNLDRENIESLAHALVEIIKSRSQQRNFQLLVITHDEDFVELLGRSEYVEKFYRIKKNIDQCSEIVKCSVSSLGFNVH

**Q.** With R3HDM2 (UniProt Q9Y2K5) as the target, how does the “dose-dependent thermal stabilisation call” value read?
**A.** The value was inactive: 0.

**Q.** Which “dose-dependent thermal stabilisation call” value does the source give for RAP1A (UniProt P62834) here?
**A.** The value was inactive: 0.

**Q.** Which “dose-dependent thermal stabilisation call” value does the source give for RBM16 (UniProt Q9UPN6) here?
**A.** Its value is inactive: 0.

**Q.** How did the “dose-dependent thermal stabilisation call” value turn out when PSMC2 (UniProt P35998) was run?
**A.** Its value is inactive: 0.

**Q.** QRSL1 (UniProt Q9H0R6) was tested. Which “dose-dependent thermal stabilisation call” value did it give?
**A.** Its value is inactive: 0.

**Q.** Which “dose-dependent thermal stabilisation call” value does the source give for PRMT7 (UniProt Q9NVM4) here?
**A.** The value was inactive: 0.

**Q.** For PSMA6 (UniProt P60900), which “dose-dependent thermal stabilisation call” value is on record?
**A.** Its value is inactive: 0.

**Q.** RAB33A (UniProt Q14088) was tested. Which “dose-dependent thermal stabilisation call” value did it give?
**A.** The value was inactive: 0.

**Q.** For PSMD7 (UniProt P51665), which “dose-dependent thermal stabilisation call” value is on record?
**A.** Its value is inactive: 0.

**Q.** With RASAL2 (UniProt Q9UJF2) as the target, how does the “dose-dependent thermal stabilisation call” value read?
**A.** Its value is inactive: 0.

**Q.** How did the “dose-dependent thermal stabilisation call” value turn out when RASA2 (UniProt Q15283) was run?
**A.** The value was inactive: 0.

**Q.** For RBM42 (UniProt Q9BTD8), which “dose-dependent thermal stabilisation call” value is on record?
**A.** Its value is inactive: 0.

**Q.** With PSAT1 (UniProt Q9Y617) as the target, how does the “dose-dependent thermal stabilisation call” value read?
**A.** Its value is inactive: 0.

**Q.** With RABEP1 (UniProt Q15276) as the target, how does the “dose-dependent thermal stabilisation call” value read?
**A.** Its value is inactive: 0.

**Q.** For PSMD13 (UniProt Q9UNM6), which “dose-dependent thermal stabilisation call” value is on record?
**A.** Its value is inactive: 0.

**Q.** How did the “dose-dependent thermal stabilisation call” value turn out when RANBP1 (UniProt P43487) was run?
**A.** The value was inactive: 0.

**Q.** With PTPN23 (UniProt Q9H3S7) as the target, how does the “dose-dependent thermal stabilisation call” value read?
**A.** Its value is inactive: 0.

**Q.** How did the “dose-dependent thermal stabilisation call” value turn out when PTPLAD1 (UniProt Q9P035) was run?
**A.** Its value is inactive: 0.

**Q.** How did the “dose-dependent thermal stabilisation call” value turn out when PSMA7 (UniProt O14818) was run?
**A.** The value was inactive: 0.

**Q.** Which “dose-dependent thermal stabilisation call” value does the source give for PSMD11 (UniProt O00231) here?
**A.** The value was inactive: 0.

**Q.** For PTGR1 (UniProt Q14914), which “dose-dependent thermal stabilisation call” value is on record?
**A.** The value was active: 1.

**Q.** How did the “dose-dependent thermal stabilisation call” value turn out when PTPRG (UniProt P23470) was run?
**A.** The value was inactive: 0.

**Q.** PVRL1 (UniProt Q15223) was tested. Which “dose-dependent thermal stabilisation call” value did it give?
**A.** Its value is inactive: 0.

**Q.** For QPCTL (UniProt Q9NXS2), which “dose-dependent thermal stabilisation call” value is on record?
**A.** The value was inactive: 0.

**Q.** How did the “dose-dependent thermal stabilisation call” value turn out when PRNP was run?
**A.** The value was inactive: 0.

**Q.** For RBBP7 (UniProt Q16576), which “dose-dependent thermal stabilisation call” value is on record?
**A.** Its value is inactive: 0.

**Q.** With RBM27 (UniProt Q9P2N5) as the target, how does the “dose-dependent thermal stabilisation call” value read?
**A.** The value was inactive: 0.

**Q.** With RBBP6 (UniProt Q7Z6E9) as the target, how does the “dose-dependent thermal stabilisation call” value read?
**A.** The value was inactive: 0.

**Q.** How did the “dose-dependent thermal stabilisation call” value turn out when R3HCC1 (UniProt Q9Y3T6) was run?
**A.** The value was inactive: 0.

**Q.** PSMG3 (UniProt Q9BT73) was tested. Which “dose-dependent thermal stabilisation call” value did it give?
**A.** The value was inactive: 0.

**Q.** For RAVER1 (UniProt Q8IY67), which “dose-dependent thermal stabilisation call” value is on record?
**A.** Its value is inactive: 0.

**Q.** For PRMT5 (UniProt O14744), which “dose-dependent thermal stabilisation call” value is on record?
**A.** The value was inactive: 0.

**Q.** How did the “dose-dependent thermal stabilisation call” value turn out when RBM45 (UniProt Q8IUH3) was run?
**A.** The value was inactive: 0.

**Q.** RAPGEF6 (UniProt Q8TEU7) was tested. Which “dose-dependent thermal stabilisation call” value did it give?
**A.** Its value is inactive: 0.

**Q.** Which “dose-dependent thermal stabilisation call” value does the source give for RAD21 (UniProt O60216) here?
**A.** The value was inactive: 0.

**Q.** With RAD50 (UniProt Q92878) as the target, how does the “dose-dependent thermal stabilisation call” value read?
**A.** Its value is inactive: 0.

**Q.** RAB4A (UniProt P20338) was tested. Which “dose-dependent thermal stabilisation call” value did it give?
**A.** The value was inactive: 0.

**Q.** For PSMD6 (UniProt Q15008), which “dose-dependent thermal stabilisation call” value is on record?
**A.** The value was inactive: 0.

— the supplement of paper PMC7666118
